Results as given in paper PMC11341699.
No constants are given. Whether binding was seen depends on the method and setting. Binding seen in cells or lysates may run through a third protein. Here binding means that the protein was enriched with, or labelled near, the bait; the list need not be complete. For part of these data: A no says only that the protein was not detected with the bait.

Sequences of proteins named here, by UniProt entry; tags and fusion partners are left off. A change or cut given only in a name is not applied to a line headed by its entry.
UniProt Q3TJD7: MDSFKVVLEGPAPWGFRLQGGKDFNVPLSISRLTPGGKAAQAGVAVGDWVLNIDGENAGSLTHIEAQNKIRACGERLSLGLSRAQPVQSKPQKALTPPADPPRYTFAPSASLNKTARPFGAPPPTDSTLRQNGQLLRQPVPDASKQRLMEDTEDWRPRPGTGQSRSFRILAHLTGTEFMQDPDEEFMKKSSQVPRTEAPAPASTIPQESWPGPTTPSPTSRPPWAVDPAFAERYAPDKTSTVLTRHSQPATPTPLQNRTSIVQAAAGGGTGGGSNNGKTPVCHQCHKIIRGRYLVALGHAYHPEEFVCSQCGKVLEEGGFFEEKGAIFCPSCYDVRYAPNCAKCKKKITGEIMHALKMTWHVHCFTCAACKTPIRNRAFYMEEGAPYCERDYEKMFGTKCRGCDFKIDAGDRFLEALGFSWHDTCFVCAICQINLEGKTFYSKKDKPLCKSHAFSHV
UniProt Q7TPH6: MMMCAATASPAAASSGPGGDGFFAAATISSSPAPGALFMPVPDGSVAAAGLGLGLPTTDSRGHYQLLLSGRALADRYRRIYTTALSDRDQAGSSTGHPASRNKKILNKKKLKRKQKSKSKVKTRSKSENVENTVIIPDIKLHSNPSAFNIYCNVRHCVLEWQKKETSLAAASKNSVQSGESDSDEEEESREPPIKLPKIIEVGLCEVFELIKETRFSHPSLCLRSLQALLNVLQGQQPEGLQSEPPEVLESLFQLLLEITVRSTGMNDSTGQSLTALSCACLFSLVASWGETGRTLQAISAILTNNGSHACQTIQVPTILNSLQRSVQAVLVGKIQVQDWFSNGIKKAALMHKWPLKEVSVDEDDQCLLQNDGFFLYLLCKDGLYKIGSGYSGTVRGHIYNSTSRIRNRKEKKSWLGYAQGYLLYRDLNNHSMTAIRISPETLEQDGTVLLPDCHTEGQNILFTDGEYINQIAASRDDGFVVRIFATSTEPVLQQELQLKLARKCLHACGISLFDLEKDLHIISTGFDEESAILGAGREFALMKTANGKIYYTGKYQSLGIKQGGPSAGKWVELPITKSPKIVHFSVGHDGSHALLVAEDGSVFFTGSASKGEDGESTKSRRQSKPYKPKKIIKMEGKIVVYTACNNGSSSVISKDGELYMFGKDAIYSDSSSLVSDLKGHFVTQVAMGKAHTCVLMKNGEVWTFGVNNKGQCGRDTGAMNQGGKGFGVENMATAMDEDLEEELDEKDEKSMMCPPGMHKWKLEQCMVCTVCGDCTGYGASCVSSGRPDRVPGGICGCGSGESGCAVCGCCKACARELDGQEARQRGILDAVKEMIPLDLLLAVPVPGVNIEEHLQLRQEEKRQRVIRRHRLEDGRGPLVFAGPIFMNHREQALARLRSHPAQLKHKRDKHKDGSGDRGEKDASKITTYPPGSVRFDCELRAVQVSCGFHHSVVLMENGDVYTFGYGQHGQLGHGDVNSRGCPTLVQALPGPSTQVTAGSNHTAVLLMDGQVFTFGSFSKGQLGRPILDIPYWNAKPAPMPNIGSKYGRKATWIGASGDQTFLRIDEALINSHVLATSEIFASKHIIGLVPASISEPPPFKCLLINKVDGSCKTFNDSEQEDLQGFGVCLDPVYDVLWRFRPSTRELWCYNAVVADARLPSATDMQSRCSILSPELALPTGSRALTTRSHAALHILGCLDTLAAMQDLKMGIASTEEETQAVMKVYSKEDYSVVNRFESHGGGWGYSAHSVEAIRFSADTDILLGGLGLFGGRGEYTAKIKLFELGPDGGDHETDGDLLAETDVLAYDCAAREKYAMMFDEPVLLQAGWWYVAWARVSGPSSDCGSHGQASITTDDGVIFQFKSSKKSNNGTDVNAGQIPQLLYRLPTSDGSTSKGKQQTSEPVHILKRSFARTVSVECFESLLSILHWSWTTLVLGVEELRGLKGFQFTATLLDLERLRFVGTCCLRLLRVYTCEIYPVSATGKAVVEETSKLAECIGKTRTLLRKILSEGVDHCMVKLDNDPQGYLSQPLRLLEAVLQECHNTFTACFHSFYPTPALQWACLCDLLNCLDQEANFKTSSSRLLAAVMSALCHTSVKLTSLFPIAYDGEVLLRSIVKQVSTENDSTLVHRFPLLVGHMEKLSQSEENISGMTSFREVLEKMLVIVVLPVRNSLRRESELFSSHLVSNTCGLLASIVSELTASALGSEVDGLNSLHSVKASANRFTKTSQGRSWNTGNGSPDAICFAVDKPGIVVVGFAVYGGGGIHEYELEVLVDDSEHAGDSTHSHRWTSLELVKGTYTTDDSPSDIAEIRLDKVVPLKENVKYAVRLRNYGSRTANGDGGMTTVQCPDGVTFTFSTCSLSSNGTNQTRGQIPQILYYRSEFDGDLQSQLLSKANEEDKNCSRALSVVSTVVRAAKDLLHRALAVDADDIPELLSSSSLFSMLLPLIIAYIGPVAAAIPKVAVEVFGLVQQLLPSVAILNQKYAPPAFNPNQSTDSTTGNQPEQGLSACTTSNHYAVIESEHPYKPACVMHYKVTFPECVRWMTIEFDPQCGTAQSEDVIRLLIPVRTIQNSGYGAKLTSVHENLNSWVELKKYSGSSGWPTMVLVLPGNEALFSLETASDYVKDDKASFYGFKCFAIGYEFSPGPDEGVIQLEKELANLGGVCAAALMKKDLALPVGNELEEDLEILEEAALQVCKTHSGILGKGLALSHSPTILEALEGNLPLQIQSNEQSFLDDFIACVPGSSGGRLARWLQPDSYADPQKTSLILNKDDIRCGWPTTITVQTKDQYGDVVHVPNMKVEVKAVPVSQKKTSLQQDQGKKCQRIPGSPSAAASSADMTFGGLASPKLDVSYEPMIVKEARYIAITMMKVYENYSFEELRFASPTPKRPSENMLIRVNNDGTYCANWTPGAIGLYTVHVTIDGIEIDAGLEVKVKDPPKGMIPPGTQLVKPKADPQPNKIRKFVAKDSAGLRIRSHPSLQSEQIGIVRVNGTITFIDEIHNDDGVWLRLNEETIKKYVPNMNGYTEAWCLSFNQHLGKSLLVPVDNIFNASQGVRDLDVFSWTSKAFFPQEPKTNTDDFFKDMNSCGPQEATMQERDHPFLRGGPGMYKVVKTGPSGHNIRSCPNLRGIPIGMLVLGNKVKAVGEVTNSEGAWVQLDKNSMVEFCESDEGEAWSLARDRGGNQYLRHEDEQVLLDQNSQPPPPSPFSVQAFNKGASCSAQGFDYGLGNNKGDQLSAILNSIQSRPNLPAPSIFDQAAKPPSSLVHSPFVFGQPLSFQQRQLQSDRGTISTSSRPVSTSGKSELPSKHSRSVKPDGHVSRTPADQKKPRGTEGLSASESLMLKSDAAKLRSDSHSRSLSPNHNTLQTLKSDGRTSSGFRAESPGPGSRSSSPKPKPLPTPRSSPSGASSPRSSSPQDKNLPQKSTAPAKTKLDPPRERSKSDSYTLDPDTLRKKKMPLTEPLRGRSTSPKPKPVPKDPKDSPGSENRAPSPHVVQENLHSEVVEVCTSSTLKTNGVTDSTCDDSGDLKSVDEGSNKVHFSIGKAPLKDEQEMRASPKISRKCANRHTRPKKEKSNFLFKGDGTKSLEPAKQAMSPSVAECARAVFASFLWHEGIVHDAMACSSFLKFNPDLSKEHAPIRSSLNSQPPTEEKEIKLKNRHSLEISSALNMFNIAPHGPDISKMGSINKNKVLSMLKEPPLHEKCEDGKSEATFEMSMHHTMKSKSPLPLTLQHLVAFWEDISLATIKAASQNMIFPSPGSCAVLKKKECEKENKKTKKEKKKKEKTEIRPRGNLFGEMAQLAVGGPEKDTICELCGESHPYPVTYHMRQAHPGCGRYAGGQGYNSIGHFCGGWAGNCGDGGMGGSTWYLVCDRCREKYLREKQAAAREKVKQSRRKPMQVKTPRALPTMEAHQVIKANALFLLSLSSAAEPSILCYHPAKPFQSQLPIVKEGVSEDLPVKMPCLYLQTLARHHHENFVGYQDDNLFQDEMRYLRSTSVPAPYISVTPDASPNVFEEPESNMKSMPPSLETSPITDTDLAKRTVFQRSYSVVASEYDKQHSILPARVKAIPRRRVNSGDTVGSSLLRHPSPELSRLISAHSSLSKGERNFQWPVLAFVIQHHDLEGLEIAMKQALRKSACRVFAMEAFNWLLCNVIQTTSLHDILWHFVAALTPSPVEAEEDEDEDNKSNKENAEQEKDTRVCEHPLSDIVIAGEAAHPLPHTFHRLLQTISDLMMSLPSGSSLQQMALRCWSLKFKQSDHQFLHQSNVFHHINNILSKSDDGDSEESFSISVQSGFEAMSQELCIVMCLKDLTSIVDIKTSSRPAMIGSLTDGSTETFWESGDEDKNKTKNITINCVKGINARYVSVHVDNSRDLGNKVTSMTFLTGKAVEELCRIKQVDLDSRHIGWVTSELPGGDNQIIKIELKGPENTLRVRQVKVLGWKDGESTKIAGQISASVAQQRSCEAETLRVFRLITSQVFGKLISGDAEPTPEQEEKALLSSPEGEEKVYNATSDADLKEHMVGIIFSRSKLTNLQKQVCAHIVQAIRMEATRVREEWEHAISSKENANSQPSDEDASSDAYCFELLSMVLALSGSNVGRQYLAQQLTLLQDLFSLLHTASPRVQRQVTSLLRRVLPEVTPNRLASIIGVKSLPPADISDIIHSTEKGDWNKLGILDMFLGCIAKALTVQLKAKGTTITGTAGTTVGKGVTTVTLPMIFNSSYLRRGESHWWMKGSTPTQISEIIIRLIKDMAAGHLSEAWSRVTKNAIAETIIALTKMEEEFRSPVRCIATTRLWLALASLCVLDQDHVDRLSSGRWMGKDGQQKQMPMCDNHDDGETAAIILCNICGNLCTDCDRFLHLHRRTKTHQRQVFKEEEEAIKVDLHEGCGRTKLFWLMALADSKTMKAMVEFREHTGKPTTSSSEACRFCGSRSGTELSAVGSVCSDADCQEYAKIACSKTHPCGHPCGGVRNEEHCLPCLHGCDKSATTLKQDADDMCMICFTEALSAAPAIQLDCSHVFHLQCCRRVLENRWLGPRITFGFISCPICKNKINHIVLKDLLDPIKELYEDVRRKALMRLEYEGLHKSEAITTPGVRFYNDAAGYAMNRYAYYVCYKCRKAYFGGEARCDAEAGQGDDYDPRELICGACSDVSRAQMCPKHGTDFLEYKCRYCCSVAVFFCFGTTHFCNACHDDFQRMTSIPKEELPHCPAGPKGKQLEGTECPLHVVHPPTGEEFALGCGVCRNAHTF
UniProt P97471: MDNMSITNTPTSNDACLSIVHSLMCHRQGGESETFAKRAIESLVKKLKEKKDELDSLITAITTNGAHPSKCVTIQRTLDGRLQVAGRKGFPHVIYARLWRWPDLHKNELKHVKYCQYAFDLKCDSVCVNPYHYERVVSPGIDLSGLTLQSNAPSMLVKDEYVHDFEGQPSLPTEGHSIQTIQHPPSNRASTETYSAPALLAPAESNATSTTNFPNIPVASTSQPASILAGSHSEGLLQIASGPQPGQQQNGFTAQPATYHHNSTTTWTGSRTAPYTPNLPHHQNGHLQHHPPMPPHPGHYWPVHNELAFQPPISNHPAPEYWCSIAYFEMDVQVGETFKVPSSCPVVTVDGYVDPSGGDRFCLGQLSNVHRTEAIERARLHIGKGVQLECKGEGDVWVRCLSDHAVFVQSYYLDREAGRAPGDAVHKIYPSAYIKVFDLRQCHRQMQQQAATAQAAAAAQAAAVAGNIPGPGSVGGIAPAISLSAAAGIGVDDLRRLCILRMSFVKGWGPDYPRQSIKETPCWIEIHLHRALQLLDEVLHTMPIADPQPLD

Tests used:
[1] = molecular target: T1, Annexin A1 (mouse (endogenous in SVFs, mature adipocytes, H5V)) (UniProt P10107); test: affinity purification with mass spectrometry; IP-MS: lysates of mouse SVFs precipitated with anti-ANXA1 or anti-PDLIM7 against control IgG; gel pieces digested with trypsin, LC-MS/MS
T1 sequence: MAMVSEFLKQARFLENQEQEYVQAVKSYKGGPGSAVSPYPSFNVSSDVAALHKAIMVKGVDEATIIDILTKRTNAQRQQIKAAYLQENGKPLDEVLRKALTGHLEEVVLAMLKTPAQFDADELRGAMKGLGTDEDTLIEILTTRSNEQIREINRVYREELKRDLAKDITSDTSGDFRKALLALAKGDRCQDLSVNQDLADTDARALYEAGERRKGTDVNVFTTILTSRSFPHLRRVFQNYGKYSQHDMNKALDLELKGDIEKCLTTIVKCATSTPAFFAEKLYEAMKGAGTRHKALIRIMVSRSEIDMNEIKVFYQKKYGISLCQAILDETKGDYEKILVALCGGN

[2] = molecular target: PDZ and LIM domain 7 (mouse (endogenous in SVFs, mature adipocytes, H5V)) (UniProt Q3TJD7); test: as above

binding [1]	binding [2]	Substance
binds	–	PDZ and LIM domain 7 (from UniProt Q3TJD7 1-457)
–	binds	MYC binding protein 2 (from UniProt Q7TPH6 1-4749) (enzyme)
–	no binding	SMAD family member 4 (from UniProt P97471 1-551)
